# In publication PMC5484694:
# The chains behind the UniProt entries cited, without tags or fusion partners. Where a name states a change or a piece, a line headed by the entry shows the natural chain unless it says otherwise.
# UniProt P61586: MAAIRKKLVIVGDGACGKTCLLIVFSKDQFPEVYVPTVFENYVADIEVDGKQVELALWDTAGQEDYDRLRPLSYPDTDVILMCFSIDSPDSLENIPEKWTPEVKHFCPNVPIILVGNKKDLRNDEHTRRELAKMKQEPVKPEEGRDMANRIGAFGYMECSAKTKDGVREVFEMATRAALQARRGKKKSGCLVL
# These are yes or no findings as the source states them, for the method shown. In cells and extracts the contact can be indirect. Some results given as binding are weak or reduced against the parent protein; the word gives no strength. Where a sequence is shown, tags or fusion partners need not be part of it.
# Target: GST-RhoA-G17A (UniProt P61586)
# Experiment: pull-down; GST-RhoA-G17A from transfected COS-7 lysate held on glutathione Sepharose beads, incubated at 4 °C in extracts of COS-7 cells expressing myc-GEF-H1 (alone or with myc-CaMKI-WT, -CA or -KD); lysis buffer 10 mM HEPES pH 7.5, 150 mM NaCl, 1 mM MgCl2, 1 mM EGTA, 0.2% Triton-X; immunoblot with anti-myc; only the target purified
row,Binder,binding
1,"myc-GEF-H1 phosphorylated at Thr103 (co-expressed with CaMKI-CA) (protein, UniProt Q60875 1-985, phosphothreonine at 103 (by co-expressed CaMKI-CA)) MSRIESLTRARIDRSKEQATKTREKEKMKEAKDARYTNGHLFTTISVSGMTMCYACNKSITAKEALICPTCNVTIHNRCKDTLANCTKVKQKQQKAALLRNNTALQSVSLRSKTTTRERPTSAIYPSDSFRQSLLGSRRGLSSLSLAKSVSTTNIAGHFNDESPLGLRQILSQSTDSLNMRNRTLSVESLIDEGVEVFYNELMSDFEMDEKDFEADSWSLAVDSSFLQQHKKEVMKKQDVIYELIQTELHHVRTLKIMTRLFRTGMLEELQMEPEVVQGLFPCVDELSDIHTRFLNQLLERRRQALCPGSTRNFVIHRLGDLLISQFSGSNAEQMRKTYSEFCSRHTKALKLYKELYARDKRFQQFIRKMTRSAVLKRHGVQECILLVTQRITKYPVLINRILQNSHGVEEEYQDLASALGLVKELLSNVDQDVHELEKEARLQEIYNRMDPRAQTPVPGKGPFGRDELLRRKLIHEGCLLWKTATGRFKDVLLLLMTDVLVFLQEKDQKYIFTSLDKPSVVSLQNLIVRDIANQAKGMFLISSGPPEMYEVHAASRDDRTTWIRVIQQSVRLCPSREDFPLIETEDKAYLRRIKTKLQQKNQALVELLQKNVELFAEMVHFQALKAGFVGMPPPALPRGLFRLESFESLRGERLLKDALREVEGLKDLLLGPCVDLPMTSREPALPLDSDSGSCPGVTANGEARTFNGSIELCRADSDSSQKDRNGNQLRSPQEEVLQPLINLYGLLHGLQAVVVQQERLMEALFPEGPERWEKLSRANSRDGEAGRAAVASVTPEKQATELALLQRQHTLLQEELRRCQRLGEERATEAGSLEARLRESEQARALLEREAEEIRRQLAALGQNEPLPAEAPWARRPLDPRRRSLPAGDALYLSFNPPQPSRGHDRLDLPVTVRSLHRPFDDREAQELGSPEDRLQDSSDPDTGSEEEVSSRLSPPHSPRDFTRMQDIPEETESRDGEPTASES",binds
2,"myc-GEF-H1–WT (protein, UniProt Q60875 1-985) MSRIESLTRARIDRSKEQATKTREKEKMKEAKDARYTNGHLFTTISVSGMTMCYACNKSITAKEALICPTCNVTIHNRCKDTLANCTKVKQKQQKAALLRNNTALQSVSLRSKTTTRERPTSAIYPSDSFRQSLLGSRRGLSSLSLAKSVSTTNIAGHFNDESPLGLRQILSQSTDSLNMRNRTLSVESLIDEGVEVFYNELMSDFEMDEKDFEADSWSLAVDSSFLQQHKKEVMKKQDVIYELIQTELHHVRTLKIMTRLFRTGMLEELQMEPEVVQGLFPCVDELSDIHTRFLNQLLERRRQALCPGSTRNFVIHRLGDLLISQFSGSNAEQMRKTYSEFCSRHTKALKLYKELYARDKRFQQFIRKMTRSAVLKRHGVQECILLVTQRITKYPVLINRILQNSHGVEEEYQDLASALGLVKELLSNVDQDVHELEKEARLQEIYNRMDPRAQTPVPGKGPFGRDELLRRKLIHEGCLLWKTATGRFKDVLLLLMTDVLVFLQEKDQKYIFTSLDKPSVVSLQNLIVRDIANQAKGMFLISSGPPEMYEVHAASRDDRTTWIRVIQQSVRLCPSREDFPLIETEDKAYLRRIKTKLQQKNQALVELLQKNVELFAEMVHFQALKAGFVGMPPPALPRGLFRLESFESLRGERLLKDALREVEGLKDLLLGPCVDLPMTSREPALPLDSDSGSCPGVTANGEARTFNGSIELCRADSDSSQKDRNGNQLRSPQEEVLQPLINLYGLLHGLQAVVVQQERLMEALFPEGPERWEKLSRANSRDGEAGRAAVASVTPEKQATELALLQRQHTLLQEELRRCQRLGEERATEAGSLEARLRESEQARALLEREAEEIRRQLAALGQNEPLPAEAPWARRPLDPRRRSLPAGDALYLSFNPPQPSRGHDRLDLPVTVRSLHRPFDDREAQELGSPEDRLQDSSDPDTGSEEEVSSRLSPPHSPRDFTRMQDIPEETESRDGEPTASES",binds
3,"myc-GEF-H1–T103E (protein, UniProt Q60875 1-985) MSRIESLTRARIDRSKEQATKTREKEKMKEAKDARYTNGHLFTTISVSGMTMCYACNKSITAKEALICPTCNVTIHNRCKDTLANCTKVKQKQQKAALLRNNEALQSVSLRSKTTTRERPTSAIYPSDSFRQSLLGSRRGLSSLSLAKSVSTTNIAGHFNDESPLGLRQILSQSTDSLNMRNRTLSVESLIDEGVEVFYNELMSDFEMDEKDFEADSWSLAVDSSFLQQHKKEVMKKQDVIYELIQTELHHVRTLKIMTRLFRTGMLEELQMEPEVVQGLFPCVDELSDIHTRFLNQLLERRRQALCPGSTRNFVIHRLGDLLISQFSGSNAEQMRKTYSEFCSRHTKALKLYKELYARDKRFQQFIRKMTRSAVLKRHGVQECILLVTQRITKYPVLINRILQNSHGVEEEYQDLASALGLVKELLSNVDQDVHELEKEARLQEIYNRMDPRAQTPVPGKGPFGRDELLRRKLIHEGCLLWKTATGRFKDVLLLLMTDVLVFLQEKDQKYIFTSLDKPSVVSLQNLIVRDIANQAKGMFLISSGPPEMYEVHAASRDDRTTWIRVIQQSVRLCPSREDFPLIETEDKAYLRRIKTKLQQKNQALVELLQKNVELFAEMVHFQALKAGFVGMPPPALPRGLFRLESFESLRGERLLKDALREVEGLKDLLLGPCVDLPMTSREPALPLDSDSGSCPGVTANGEARTFNGSIELCRADSDSSQKDRNGNQLRSPQEEVLQPLINLYGLLHGLQAVVVQQERLMEALFPEGPERWEKLSRANSRDGEAGRAAVASVTPEKQATELALLQRQHTLLQEELRRCQRLGEERATEAGSLEARLRESEQARALLEREAEEIRRQLAALGQNEPLPAEAPWARRPLDPRRRSLPAGDALYLSFNPPQPSRGHDRLDLPVTVRSLHRPFDDREAQELGSPEDRLQDSSDPDTGSEEEVSSRLSPPHSPRDFTRMQDIPEETESRDGEPTASES",binds
